Measured values reported in the supplement of paper PMC4604168 (melanoma cell lines).
This is one part of the list. Many values rest on one well or one pass, so single values are uncertain.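 The apoptosis fraction was the count of cleaved-PARP antibody-stained nuclei relative to all DNA-stained nuclei, imaged in 1,536-well plates. Screening doses were set so most cells survived, and baseline and induced cleaved-PARP levels vary greatly across cell lines.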

Legend:
Experiment in all cases: cleaved PARP positive nuclei fraction relative to DMSO control; melanoma cells; higher = more apoptosis
Conditions in all cases: library dose: low library concentration; 72 h
[1] = system: 501Mel
[2] = system: A101D
[3] = system: A2058
[4] = system: A375
[5] = system: C32
[6] = system: CBRC008 (line from a melanoma biopsy)
[7] = system: CBRC013 (line from a melanoma biopsy)
[8] = system: CBRC014 (line from a melanoma biopsy)
[9] = system: CBRC016 (line from a melanoma biopsy)
[10] = system: CBRC017 (line from a melanoma biopsy)

Compound | cleaved PARP positive nuclei fraction [1] [%] | cleaved PARP positive nuclei fraction [2] [%] | cleaved PARP positive nuclei fraction [3] [%] | cleaved PARP positive nuclei fraction [4] [%] | cleaved PARP positive nuclei fraction [5] [%] | cleaved PARP positive nuclei fraction [6] [%] | cleaved PARP positive nuclei fraction [7] [%] | cleaved PARP positive nuclei fraction [8] [%] | cleaved PARP positive nuclei fraction [9] [%] | cleaved PARP positive nuclei fraction [10] [%]
Cn1nnc2c(C(N)=O)ncn2c1=O [temozolomide] + COc1cc2c(Oc3ccc4[nH]c(C)cc4c3F)ncnc2cc1OCCCN1CCCC1 [cediranib] (first compound 2 µM, partner dose 0.4 µM) | 105 | 101 | 181 | 102 | 89.7 | 177 | 97.2 | 143 | 74.4 | 72.2
COCC[n+]1c2c(n(Cc3cnccn3)c1C)C(=O)c1ccccc1C2=O + O=C(O)c1ccc(-c2c[nH]c3ncc(-c4ccccc4)cc23)cc1C1CCCC1 [GSK650394] (first compound 0.0004 µM, partner dose 0.16 µM) | 131 | 47.5 | 66.7 | 224 | 20.7 | 599 | 91.3 | 331 | 162 | 135
NC(=O)Nc1cc(-c2cccc(F)c2)sc1C(=O)N[C@H]1CCCNC1 + OCCn1cc(-c2cnc3nnn(Cc4ccc5ncccc5c4)c3n2)cn1 [PF04217903] (first compound 0.02 µM, partner dose 1 µM) | 69.6 | 103 | 47.1 | 459 | 122 | 53.2 | 78.1 | 95.4 | 87.7 | 109
Cn1c(Nc2ccc(C(F)(F)F)cc2)nc2cc(Oc3ccnc(-c4ncc(C(F)(F)F)[nH]4)c3)ccc21 + COc1cc(Nc2ncc(F)c(Nc3ccc4c(n3)NC(=O)C(C)(C)O4)n2)cc(OC)c1OC [Tamatinib] (first compound 0.08 µM, partner dose 0.4 µM) | 85.4 | 594 | 77.1 | 66.5 | 44.3 | 579 | 128 | 150 | 145 | 107
CC1(C)NC(=O)N(c2ccc([N+](=O)[O-])c(C(F)(F)F)c2)C1=O [nilutamide] + COc1cc2c(Oc3ccc4[nH]c(C)cc4c3F)ncnc2cc1OCCCN1CCCC1 [cediranib] (first compound 1 µM, partner dose 0.4 µM) | 139 | 76.7 | 130 | 158 | 132 | 81.9 | 86.2 | 81.6 | 45.9 | 63.5
Cn1c(Nc2ccc(C(F)(F)F)cc2)nc2cc(Oc3ccnc(-c4ncc(C(F)(F)F)[nH]4)c3)ccc21 + CN(NC(=O)CC(=O)NN(C)C(=S)c1ccccc1)C(=S)c1ccccc1 [STA4783] (first compound 0.08 µM, partner dose 0.006 µM) | 137 | 67.4 | 198 | 488 | 130 | 1360 | 80.7 | 303 | 266 | 167
COCC[n+]1c2c(n(Cc3cnccn3)c1C)C(=O)c1ccccc1C2=O + NCC(=O)Nc1ccc(-n2nc(C(F)(F)F)cc2-c2ccc3c(ccc4ccccc43)c2)cc1 [OSU03012] (first compound 0.0004 µM, partner dose 1 µM) | 532 | 42.8 | 166 | 3950 | 93.2 | 1130 | 108 | 91.2 | 226 | 103
COCC[n+]1c2c(n(Cc3cnccn3)c1C)C(=O)c1ccccc1C2=O + Cc1cc(N2CCOCC2)cc2[nH]c(-c3c(NC[C@@H](O)c4cccc(Cl)c4)cc[nH]c3=O)nc12 [BMS536924] (first compound 0.0004 µM, partner dose 0.2 µM) | 338 | 171 | 274 | 97.1 | 219 | 1460 | 162 | 92.4 | 65.7 | 104
CC(=O)c1c(C)c2cnc(Nc3ccc(N4CCNCC4)cn3)nc2n(C2CCCC2)c1=O [palbociclib] + O=C(Nc1cccc(Cl)c1)Nc1ncc(CCNc2ncnc3ccsc23)s1 [SNS314] (first compound 0.04 µM, partner dose 0.0008 µM) | 247 | 99.2 | 43.1 | 201 | 95.5 | 91.3 | 91.9 | 100 | 105 | 84.6
COCC[n+]1c2c(n(Cc3cnccn3)c1C)C(=O)c1ccccc1C2=O + C[C@@H]1CCN(C(=O)CC#N)C[C@@H]1N(C)c1ncnc2[nH]ccc12 [CP690550] (first compound 0.0004 µM, partner dose 1 µM) | 122 | 127 | 202 | 228 | 52.3 | 510 | 94.6 | 180 | 222 | 91.6
C=CCNC1=C2C[C@@H](C)C[C@H](OC)[C@H](O)[C@@H](C)/C=C(\C)[C@H](OC(N)=O)[C@@H](OC)/C=C\C=C(/C)C(=O)NC(=CC1=O)C2=O [Tanespimycin] + NC(=O)Nc1cc(-c2cccc(F)c2)sc1C(=O)N[C@H]1CCCNC1 [AZD7762] (first compound 0.002 µM, partner dose 0.02 µM) | 149 | 184 | 72.3 | 210 | 257 | 202 | 122 | 108 | 119 | 113
Cc1cc(N2CCOCC2)cc2[nH]c(-c3c(NC[C@@H](O)c4cccc(Cl)c4)cc[nH]c3=O)nc12 + OCCn1cc(-c2cnc3nnn(Cc4ccc5ncccc5c4)c3n2)cn1 [PF04217903] (first compound 0.2 µM, partner dose 1 µM) | 99.3 | 87 | 129 | 157 | 111 | 119 | 120 | 85.4 | 53.7 | 72.3
O=C(CCCCCCC(=O)Nc1ccccc1)NO [vorinostat] + CC(C)(C)c1cnc(CSc2cnc(NC(=O)C3CCNCC3)s2)o1 [SNS-032] (first compound 0.08 µM, partner dose 0.01 µM) | 91.8 | 43.2 | 237 | 101 | 257 | 75.1 | 118 | 84.9 | 141 | 107
Clc1ccc(Nc2nnc(Cc3ccncc3)c3ccccc23)cc1 [vatalanib] + CN(NC(=O)CC(=O)NN(C)C(=S)c1ccccc1)C(=S)c1ccccc1 [STA4783] (first compound 2 µM, partner dose 0.006 µM) | 159 | 132 | 114 | 88.5 | 75.6 | 125 | 104 | 109 | 79 | 115
O=C(Nc1cccc(Cl)c1)Nc1ncc(CCNc2ncnc3ccsc23)s1 + NCC(=O)Nc1ccc(-n2nc(C(F)(F)F)cc2-c2ccc3c(ccc4ccccc43)c2)cc1 [OSU03012] (first compound 0.0008 µM, partner dose 1 µM) | 192 | 297 | 99 | 541 | 100 | 51.4 | 69.4 | 91.2 | 129 | 103
CC(=O)c1c(C)c2cnc(Nc3ccc(N4CCNCC4)cn3)nc2n(C2CCCC2)c1=O [palbociclib] + O=C(O)c1ccc(-c2c[nH]c3ncc(-c4ccccc4)cc23)cc1C1CCCC1 [GSK650394] (first compound 0.04 µM, partner dose 0.16 µM) | 126 | 194 | 65.8 | 153 | 81.8 | 225 | 96 | 106 | 171 | 127
Cc1nc(Nc2ncc(C(=O)Nc3c(C)cccc3Cl)s2)cc(N2CCN(CCO)CC2)n1 [dasatanib] + Cn1cncc1[C@@](N)(c1ccc(Cl)cc1)c1ccc2c(c1)c(-c1cccc(Cl)c1)cc(=O)n2C [tipifarnib] (first compound 0.004 µM, partner dose 0.01 µM) | 114 | 109 | 119 | 151 | 184 | 278 | 144 | 115 | 75.1 | 117
C[C@]1(c2nc3c(C(N)=O)cccc3[nH]2)CCCN1 [Veliparib] + O=C(Nc1cccc(Cl)c1)Nc1ncc(CCNc2ncnc3ccsc23)s1 [SNS314] (first compound 1.4 µM, partner dose 0.0008 µM) | 73.1 | 100 | 131 | 83.6 | 61.6 | 327 | 128 | 92 | 154 | 85
CC(=O)c1c(C)c2cnc(Nc3ccc(N4CCNCC4)cn3)nc2n(C2CCCC2)c1=O [palbociclib] + O=C(CCCCCCC(=O)Nc1ccccc1)NO [vorinostat] (first compound 0.04 µM, partner dose 0.08 µM) | 129 | 89.7 | 31.9 | 110 | 64.7 | 134 | 65.3 | 120 | 123 | 125
COc1cc(Nc2ncc(F)c(Nc3ccc4c(n3)NC(=O)C(C)(C)O4)n2)cc(OC)c1OC [Tamatinib] + CO[C@@H]1[C@H](N(C)C(=O)c2ccccc2)C[C@H]2O[C@]1(C)n1c3ccccc3c3c4c(c5c6ccccc6n2c5c31)C(=O)NC4 [Midostaurin] (first compound 0.4 µM, partner dose 0.08 µM) | 194 | 122 | 313 | 246 | 186 | 58.6 | 128 | 89.8 | 159 | 118
Cn1cncc1[C@@](N)(c1ccc(Cl)cc1)c1ccc2c(c1)c(-c1cccc(Cl)c1)cc(=O)n2C [tipifarnib] + CN(NC(=O)CC(=O)NN(C)C(=S)c1ccccc1)C(=S)c1ccccc1 [STA4783] (first compound 0.01 µM, partner dose 0.006 µM) | 253 | 123 | 315 | 4270 | 233 | 1320 | 94.1 | 367 | 274 | 402
C#Cc1cccc(Nc2ncnc3cc(OCCOC)c(OCCOC)cc23)c1 [erlotinib] + O=C(Nc1cccc(Cl)c1)Nc1ncc(CCNc2ncnc3ccsc23)s1 [SNS314] (first compound 0.8 µM, partner dose 0.0008 µM) | 76 | 97 | 95.4 | 54.1 | 140 | 66.1 | 102 | 190 | 23.5 | 120

2 entries from above, as tab-separated lines.
Compound	cleaved PARP positive nuclei fraction [1] [%]	cleaved PARP positive nuclei fraction [2] [%]	cleaved PARP positive nuclei fraction [3] [%]	cleaved PARP positive nuclei fraction [4] [%]	cleaved PARP positive nuclei fraction [5] [%]	cleaved PARP positive nuclei fraction [6] [%]	cleaved PARP positive nuclei fraction [7] [%]	cleaved PARP positive nuclei fraction [8] [%]	cleaved PARP positive nuclei fraction [9] [%]	cleaved PARP positive nuclei fraction [10] [%]
Cc1nc(Nc2ncc(C(=O)Nc3c(C)cccc3Cl)s2)cc(N2CCN(CCO)CC2)n1 [dasatanib] + Cn1cncc1[C@@](N)(c1ccc(Cl)cc1)c1ccc2c(c1)c(-c1cccc(Cl)c1)cc(=O)n2C [tipifarnib] (first compound 0.004 µM, partner dose 0.01 µM)	114	109	119	151	184	278	144	115	75.1	117
C[C@]1(c2nc3c(C(N)=O)cccc3[nH]2)CCCN1 [Veliparib] + O=C(Nc1cccc(Cl)c1)Nc1ncc(CCNc2ncnc3ccsc23)s1 [SNS314] (first compound 1.4 µM, partner dose 0.0008 µM)	73.1	100	131	83.6	61.6	327	128	92	154	85
